Results are given in words; binding and its absence hold for the method and conditions named. In cells and extracts the contact can be indirect. Some binding calls cover weakened binding; strength is not graded here.
Legend:
[1] = molecular target: 3xFlag-tagged Cdc42 variant 1 (canonical Cdc42) (UniProt P60953); experiment: co-IP; Flag-tagged Cdc42 with full-length EGFR, EGFR ICD or EGFR ECD in HEK293 cells; IP Flag
[2] = molecular target: 3xFlag-tagged Cdc42 splice variant 2 (UniProt P60953); experiment: as above
[3] = molecular target: 3xFlag-tagged Cdc42 splice variant 2 (UniProt P60953); experiment: co-IP; Cdc42 V1 or V2 with endogenous EGFR and clathrin in HEK293 cells

Chains of the proteins cited; added tags and fusions are not shown. Lines headed by an entry give the natural chain unless they say otherwise; changes in a name come on top. A line that says so, or that is headed by a name, gives the form on record, which may keep a tag or linker.
3xFlag-tagged Cdc42 splice variant 2 (P60953, form named): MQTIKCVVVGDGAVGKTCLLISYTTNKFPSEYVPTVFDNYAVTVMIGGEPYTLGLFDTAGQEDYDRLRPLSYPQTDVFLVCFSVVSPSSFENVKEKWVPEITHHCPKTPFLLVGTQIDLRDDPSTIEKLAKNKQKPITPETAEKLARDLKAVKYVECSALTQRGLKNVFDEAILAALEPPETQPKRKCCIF

## EGFR extracellular domain (ECD) (from UniProt P00533 25-645) (domain or fragment)
[1]
  binding: no binding
[2]
  binding: no binding

## endogenous EGFR (from UniProt P00533 25-1210) (receptor)
[3]
  binding: binds

## full-length EGFR (from UniProt P00533 25-1210) (receptor)
[2]
  binding: binds

Reference: paper PMC7455142
